According to publication PMC4770209:
For some of these results: The comparison behind a weaker result is the experiment's own reference, which may not be listed here. For some of these results: For at least one entry, the source does not settle the construct or the ends of the probe. For some of these results: At least one verdict rests on a figure or table, not on a statement of the authors.

By UniProt entry, the sequences of proteins in these tests, tags left out. Where a name states a change or a piece, a line headed by the entry shows the natural chain unless it says otherwise. Residues count along the entry.
UniProt Q01167, 1-430: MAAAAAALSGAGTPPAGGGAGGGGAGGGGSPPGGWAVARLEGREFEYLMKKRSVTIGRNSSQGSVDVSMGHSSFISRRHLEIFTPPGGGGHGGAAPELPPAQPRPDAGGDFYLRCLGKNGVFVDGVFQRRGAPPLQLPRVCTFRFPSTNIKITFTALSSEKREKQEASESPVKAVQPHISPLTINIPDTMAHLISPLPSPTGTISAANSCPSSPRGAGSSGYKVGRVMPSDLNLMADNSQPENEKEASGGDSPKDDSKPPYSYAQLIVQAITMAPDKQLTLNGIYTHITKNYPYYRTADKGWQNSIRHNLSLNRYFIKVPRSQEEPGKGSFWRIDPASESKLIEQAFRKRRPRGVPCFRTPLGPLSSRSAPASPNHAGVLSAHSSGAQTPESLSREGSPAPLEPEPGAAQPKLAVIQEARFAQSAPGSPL
UniProt Q01167, 228-382: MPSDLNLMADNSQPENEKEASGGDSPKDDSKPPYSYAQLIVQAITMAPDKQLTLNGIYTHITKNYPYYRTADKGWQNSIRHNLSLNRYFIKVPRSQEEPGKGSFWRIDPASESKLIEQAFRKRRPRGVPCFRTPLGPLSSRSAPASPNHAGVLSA

Assays:
[1] = target: FOXK2(1-430)-Sso7d fusion (UniProt Q01167); assay: pull-down; conditions: streptavidin beads; protein translated in vitro; residues 1-430; label: 5'-biotin on strand 1
[2] = target: FOXK2(1-430)-Sso7d, Sso7d mutant (UniProt Q01167); assay: pull-down; conditions: streptavidin beads; protein translated in vitro; residues 1-430; label: 5'-biotin on strand 1
[3] = target: FOXK2(1-430)-Sso7d, forkhead domain mutant (UniProt Q01167); assay: pull-down; conditions: streptavidin beads; protein translated in vitro; residues 1-430; label: 5'-biotin on strand 1
[4] = target: FOXK2(228-382) (UniProt Q01167); assay: competition with a labelled probe; conditions: unlabelled competitor 25-200x vs labelled WT; EMSA: 75 mM KCl, room temperature 30 min, 5% PAGE in 0.25x TBE at 4 C; recombinant protein; residues 228-382; protein details: 6xHis

“CTATTCCCTGGGTAAACAGCCTGAGGGGAAG (double strand) [ANKRD1 WT probe (ADS4757/ADS4758)]”: binds [1]; binds more weakly [2]; binds more weakly [3].

“CTAGAACATGTTAGGGTAAACAAGGAAGCCTG / CTAGCAGGCTTCCTTGTTTACCCTAACATGTT [CYP27C1mut1 (ADS3737/ADS3738)]”: binds more weakly [4].
